Experimental data taken from doi:10.1101/2022.07.11.499601.
These are yes or no findings as the source states them, for the method shown. In cells and extracts the contact can be indirect. Some binding calls cover weakened binding; strength is not graded here.

Target: T1, CXCR3-SmBiT, P49682
T1 chain: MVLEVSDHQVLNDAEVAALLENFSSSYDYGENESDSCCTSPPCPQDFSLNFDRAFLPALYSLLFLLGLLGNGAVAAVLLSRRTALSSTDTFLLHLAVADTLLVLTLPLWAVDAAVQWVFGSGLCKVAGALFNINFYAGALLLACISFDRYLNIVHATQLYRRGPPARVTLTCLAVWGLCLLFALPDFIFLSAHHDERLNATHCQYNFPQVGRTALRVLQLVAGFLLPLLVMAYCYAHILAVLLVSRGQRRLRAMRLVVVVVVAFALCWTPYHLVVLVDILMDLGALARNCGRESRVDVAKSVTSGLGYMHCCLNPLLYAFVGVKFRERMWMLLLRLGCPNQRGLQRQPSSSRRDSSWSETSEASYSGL
Assay: split reporter
Conditions: remark: other sources report otherwise

B1: GRK6-LgBiT, P43250 1-576 (enzyme)
chain: MELENIVANTVLLKAREGGGGNRKGKSKKWRQMLQFPHISQCEELRLSLERDYHSLCERQPIGRLLFREFCATRPELSRCVAFLDGVAEYEVTPDDKRKACGRQLTQNFLSHTGPDLIPEVPRQLVTNCTQRLEQGPCKDLFQELTRLTHEYLSVAPFADYLDSIYFNRFLQWKWLERQPVTKNTFRQYRVLGKGGFGEVCACQVRATGKMYACKKLEKKRIKKRKGEAMALNEKQILEKVNSRFVVSLAYAYETKDALCLVLTLMNGGDLKFHIYHMGQAGFPEARAVFYAAEICCGLEDLHRERIVYRDLKPENILLDDHGHIRISDLGLAVHVPEGQTIKGRVGTVGYMAPEVVKNERYTFSPDWWALGCLLYEMIAGQSPFQQRKKKIKREEVERLVKEVPEEYSERFSPQARSLCSQLLCKDPAERLGCRGGSAREVKEHPLFKKLNFKRLGAGMLEPPFKPDPQAIYCKDVLDIEQFSTVKGVELEPTDQDFYQKFATGSVPIPWQNEMVETECFQELNVFGLDGSVPPDLDWKGQPPAPPKKGLLQRLFSRQDCCGNCSDSEEELPTRL
  binding: binds
